In the supplement of paper PMC10331698:
± gives the standard deviation of the averaged measurements. Most entries show no effect beyond the scatter of the controls.

Legend:
Experiment in all cases: level (log10 ratio to DMSO vehicle control); higher = higher biomarker level / cell amount than vehicle control
[1] = compound: O=S(=O)(O)C(F)(F)C(F)(F)C(F)(F)C(F)(F)C(F)(F)C(F)(F)C(F)(F)C(F)(F)F [Perfluorooctanesulfonic acid]; conditions: 2200 nM; in DMSO
Description: (§1)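 BioMAP Diversity Plus panel of 12 human primary cell co-culture systems (3C, 4H, LPS, SAg, BT, BF4T, BE3C, CASM3C, HDF3CGF, KF3CT, MyoF, Mphg). Compounds were added 1 h before stimulation and left for 24 h (MyoF 48 h; BT 72 h for soluble read-outs or 6 d for IgG). Biomarkers were read by ELISA, cytotoxicity by SRB, PBMC viability and proliferation by Alamar Blue. Each well value was divided by the mean of 8 DMSO control wells on the same plate and log10 transformed; duplicate blinded samples were tested at 4 concentrations.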

[2] = compound: C=C(C)C(=O)OCC(F)(F)C(F)(F)C(F)(F)C(F)(F)C(F)(F)C(F)(F)C(F)(F)F; conditions: in DMSO
Description: as §1

[3] = compound: O=P(O)(O)CCC(F)(F)C(F)(F)C(F)(F)C(F)(F)C(F)(F)C(F)(F)F [2-(Perfluorohexyl)ethylphosphonic acid]; conditions: 2200 nM; in DMSO
Description: as §1

[4] = compound: FC(F)(F)C(F)(F)C(F)(F)CC1CO1 [1H,1H-Heptafluorobutyl epoxide]; conditions: 2200 nM; in DMSO
Description: as §1

[5] = compound: O=S(=O)(OCC(F)(F)F)C(F)(F)C(F)(F)C(F)(F)C(F)(F)F [2,2,2-Trifluoroethyl perfluorobutanesulfonate]; conditions: 2200 nM; in DMSO
Description: as §1

[6] = compound: COC(=O)C(F)(F)C(F)(F)OC(F)(C(F)(F)F)C(F)(F)OC(F)=C(F)F [Methyl perfluoro(3-(1-ethenyloxypropan-2-yloxy)propanoate)]; conditions: in DMSO
Description: as §1

[7] = compound: CO[Si](C)(CCC(F)(F)C(F)(F)C(F)(F)C(F)(F)C(F)(F)C(F)(F)F)OC [Dimethoxymethyl((perfluorohexyl)ethyl)silane]; conditions: in DMSO
Description: as §1

[8] = compound: C=CC(=O)OCC(F)(F)C(F)(F)C(F)(F)C(F)(F)C(F)(F)C(F)(F)C(F)(F)F [1H,1H-Perfluorooctyl acrylate]; conditions: 2200 nM; in DMSO
Description: as §1

[9] = compound: C=CC(F)(F)C(F)(F)C(F)(F)C(F)(F)C(F)(F)C(F)(F)C(F)(F)C(F)(F)C=C [1,8-Divinylperfluorooctane]; conditions: in DMSO
Description: as §1

[10] = compound: OCC(F)(F)C(F)(F)C(F)(F)C(F)(F)C(F)(F)C(F)F [1H,1H,7H-Dodecafluoro-1-heptanol]; conditions: 2200 nM; in DMSO
Description: as §1

[11] = compound: NS(=O)(=O)C(F)(F)C(F)(F)C(F)(F)C(F)(F)C(F)(F)C(F)(F)C(F)(F)C(F)(F)F [Perfluorooctanesulfonamide]; conditions: in DMSO
Description: as §1

[12] = compound: O=S(=O)(F)C(F)(F)C(F)(F)C(F)(F)C(F)(F)C(F)(F)C(F)(F)C(F)(F)C(F)(F)F [Perfluorooctanesulfonyl fluoride]; conditions: 2200 nM; in DMSO
Description: as §1

[13] = compound: O=S(=O)(O)C(F)(F)C(F)(F)C(F)(F)C(F)(F)C(F)(F)C(F)(F)C(F)(F)C(F)(F)F [Potassium perfluorooctanesulfonate]; conditions: 2200 nM; in DMSO
Description: as §1

[14] = compound: NC(=O)C(F)(F)C(F)(F)C(F)(F)C(F)F; conditions: in DMSO
Description: as §1

[15] = compound: O=C(O)C(F)(F)C(F)(F)C(F)F [4H-Perfluorobutanoic acid]; conditions: in DMSO
Description: as §1

Pentafluoropropionamide = compound: NC(=O)C(F)(F)C(F)(F)F [Pentafluoropropionamide]; conditions: 2200 nM; in DMSO
Description: as §1

[16] = compound: OCCCCC(F)(F)C(F)(F)C(F)(F)C(F)(F)F [4:4 Fluorotelomer alcohol]; conditions: 2200 nM; in DMSO
Description: as §1

Heptafluorobutyl iodide = compound: FC(F)(F)C(F)(F)C(F)(F)CI [Heptafluorobutyl iodide]; conditions: 2200 nM; in DMSO
Description: as §1

| Test System | level (log10) [1] | level (log10) ([2]; 740 nM) | level (log10) ([2]; 2200 nM) | level (log10) [3] | level (log10) [4] | level (log10) [5] | level (log10) ([6]; 740 nM) | level (log10) ([6]; 2200 nM) | level (log10) ([7]; 740 nM) | level (log10) ([7]; 2200 nM) | level (log10) [8] | level (log10) ([9]; 740 nM) | level (log10) ([9]; 2200 nM) | level (log10) [10] | level (log10) ([11]; 2200 nM) | level (log10) ([11]; 6700 nM) | level (log10) ([11]; 20000 nM) | level (log10) [12] | level (log10) [13] | level (log10) ([14]; 2200 nM) | level (log10) ([14]; 6700 nM) | level (log10) ([14]; 20000 nM) | level (log10) ([14]; 60000 nM) | level (log10) ([15]; 2200 nM) | level (log10) ([15]; 6700 nM) | level (log10) ([15]; 20000 nM) | level (log10) ([15]; 60000 nM) | level (log10) (Pentafluoropropionamide) | level (log10) [16] | level (log10) (Heptafluorobutyl iodide) |
| --- | --- | --- | --- | --- | --- | --- | --- | --- | --- | --- | --- | --- | --- | --- | --- | --- | --- | --- | --- | --- | --- | --- | --- | --- | --- | --- | --- | --- | --- | --- |
| 3C:CXCL9/MIG | 0.0035 ± 0.011 | 0.0025 ± 0.0021 | 0.0005 ± 0.011 | 0.001 ± 0.0042 | 0.0005 ± 0.0035 | 0.0075 ± 0.0064 | 0.0025 ± 0.018 | -0.01 ± 0.0071 | 0.0085 ± 0.0078 | -0.0055 ± 0.005 | -0.0045 ± 0.019 | -0.0065 ± 0.021 | -0.009 ± 0.0042 | -0.0015 ± 0.0078 | 0.028 ± 0.0028 | 0.0225 ± 0.021 | 0.006 ± 0.028 | -0.004 ± 0.014 | 0.002 ± 0.0099 | -0.0025 ± 0.0078 | -0.0095 ± 0.011 | -0.012 ± 0.0014 | -0.0045 ± 0.0021 | -0.0025 ± 0.0021 | 0.005 ± 0.0042 | 0.0035 ± 0.013 | 0.012 ± 0.0014 | 0.0025 ± 0.0064 | 0.0145 ± 0.00071 | -0.005 ± 0.0028 |
| CASM3C:PAI-I | 0.0075 ± 0.012 | -0.0025 ± 0.0035 | -0.0155 ± 0.0064 | 0.0005 ± 0.0078 | -0.0045 ± 0.0035 | -0.0015 ± 0.0035 | -0.003 ± 0.0057 | -0.003 ± 0.0099 | 0.0115 ± 0.029 | -0.012 ± 0.0057 | 0 ± 0.013 | 0.0005 ± 0.0021 | 0 ± 0.0085 | 0.013 ± 0.0099 | 0.003 ± 0.0071 | 0.012 ± 0.0057 | 0.0055 ± 0.011 | 0.0015 ± 0.015 | 0.0165 ± 0.019 | -0.004 ± 0.024 | -0.005 ± 0.021 | -0.003 ± 0.0085 | -0.008 ± 0.0099 | 0.015 ± 0.0057 | 0.009 ± 0.0071 | 0.006 ± 0.0071 | 0.0075 ± 0.0021 | -0.0065 ± 0.016 | 0.0165 ± 0.00071 | -0.01 ± 0.0057 |
| SAg:SRB | -0.012 ± 0.014 | 0.023 ± 0.0071 | 0.015 ± 0.014 | -0.0055 ± 0.00071 | 0.0025 ± 0.021 | 0.0085 ± 0.011 | -0.002 ± 0.0071 | 0.005 | 0.008 ± 0.0042 | 0.011 ± 0.0042 | 0.0045 ± 0.011 | 0.008 ± 0.011 | 0.0145 ± 0.0064 | -0.0135 ± 0.0064 | 0.019 ± 0.0099 | 0.0065 ± 0.005 | -0.0515 ± 0.0064 | 0 ± 0.0014 | -0.004 ± 0.0099 | -0.0175 ± 0.0078 | -0.0225 ± 0.0035 | -0.02 ± 0.0028 | -0.015 ± 0.021 | -0.01 ± 0.0014 | -0.0055 ± 0.0078 | -0.0145 ± 0.0021 | 0 ± 0.0028 | 0.011 ± 0.0057 | -0.003 ± 0.018 | 0.013 ± 0.0042 |
| 4H:CD62P/P-selectin | 0.022 ± 0.0099 | 0.0095 ± 0.039 | -0.0085 ± 0.059 | 0.0065 ± 0.021 | 0.0185 ± 0.035 | -0.045 ± 0.014 | 0.004 ± 0.05 | 0.0345 ± 0.019 | 0.005 ± 0.055 | -0.0135 ± 0.016 | -0.0025 ± 0.028 | -0.039 ± 0.041 | -0.0145 ± 0.00071 | 0.014 ± 0.13 | 0.018 ± 0.011 | 0.028 ± 0.014 | -0.0235 ± 0.018 | 0.0205 ± 0.079 | 0.0235 ± 0.005 | -0.0305 ± 0.029 | -0.017 | -0.017 ± 0.031 | 0.0195 ± 0.029 | 0.017 ± 0.033 | -0.0185 ± 0.042 | 0.0005 ± 0.057 | -0.011 ± 0.04 | -0.0365 ± 0.059 | -0.0195 ± 0.0021 | -0.056 ± 0.028 |
